# Reference: the supplement of paper PMC8728848
# This is one part of the list.
# B1: EfCBM33A (Enterococcus faecalis), Q838S1 (protein)
# chain: MKKSLLTIVLAFSFVLGGAALAPTVSEAHGYVASPGSRAFFGSSAGGNLNTNVGRAQWEPQSIEAPKNTFITGKLASAGVSGFEPLDEQTATRWHKTNITTGPLDITWNLTAQHRTASWDYYITKNGWNPNQPLDIKNFDKIASIDGKQEVPNKVVKQTINIPTDRKGYHVIYAVWGIGDTVNAFYQAIDVNIQ
# Assays:
# Test in all cases: glycan array binding signal (z-score within array); higher = stronger binding
# Details in all cases: glycan notation: IUPAC condensed, linker removed
# [1] = molecular target: Gal(b1-4)GalNAc(b1-3)[Fuc(a1-2)]Gal(b1-4)GlcNAc
# Summary of the method: (§1)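 The binding signal is a Z-score computed within each array. Data were drawn from 3228 arrays in the Consortium for Functional Glycomics database, restricted to those with a known protein sequence. Scores were averaged over arrays of the same protein sequence at different concentrations or buffers, and over linkers, and negative values can be taken as non-binding.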
# [2] = molecular target: Gal(b1-4)Glc
# Summary of the method: as §1
# [3] = molecular target: Gal(b1-4)Glc6S
# Summary of the method: as §1
# [4] = molecular target: Gal(b1-4)GlcNAc
# Summary of the method: as §1
# [5] = molecular target: Gal(b1-4)GlcNAc(a1-6)Gal(b1-4)GlcNAc
# Summary of the method: as §1
# [6] = molecular target: Gal(b1-4)GlcNAc(b1-2)Man
# Summary of the method: as §1
# [7] = molecular target: Gal(b1-4)GlcNAc(b1-2)Man(a1-3)Man(b1-4)GlcNAc(b1-4)GlcNAc
# Summary of the method: as §1
# [8] = molecular target: Gal(b1-4)GlcNAc(b1-2)Man(a1-3)[Gal(b1-4)GlcNAc(b1-2)Man(a1-6)]Man(b1-4)GlcNAc(b1-4)GlcNAc
# Summary of the method: as §1
# [9] = molecular target: Gal(b1-4)GlcNAc(b1-2)Man(a1-3)[Gal(b1-4)GlcNAc(b1-2)Man(a1-6)]Man(b1-4)GlcNAc(b1-4)[Fuc(a1-6)]GlcNAc
# Summary of the method: as §1
# [10] = molecular target: Gal(b1-4)GlcNAc(b1-2)Man(a1-3)[Gal(b1-4)GlcNAc(b1-2)Man(a1-6)][Gal(b1-4)GlcNAc(b1-4)]Man(b1-4)GlcNAc(b1-4)[Fuc(a1-6)]GlcNAc
# Summary of the method: as §1
# [11] = molecular target: Gal(b1-4)GlcNAc(b1-2)Man(a1-3)[Gal(b1-4)GlcNAc(b1-2)Man(a1-6)][GlcNAc(b1-4)]Man(b1-4)GlcNAc(b1-4)[Fuc(a1-6)]GlcNAc
# Summary of the method: as §1
# [12] = molecular target: Gal(b1-4)GlcNAc(b1-2)Man(a1-3)[GlcNAc(b1-2)Man(a1-6)]Man(b1-4)GlcNAc(b1-4)GlcNAc
# Summary of the method: as §1
# [13] = molecular target: Gal(b1-4)GlcNAc(b1-2)Man(a1-3)[GlcNAc(b1-4)][Gal(b1-4)GlcNAc(b1-2)Man(a1-6)]Man(b1-4)GlcNAc(b1-4)GlcNAc
# Summary of the method: as §1
# [14] = molecular target: Gal(b1-4)GlcNAc(b1-2)Man(a1-3)[Man(a1-6)]Man(b1-4)GlcNAc(b1-4)GlcNAc
# Summary of the method: as §1
# [15] = molecular target: Gal(b1-4)GlcNAc(b1-2)Man(a1-6)Man(b1-4)GlcNAc(b1-4)GlcNAc
# Summary of the method: as §1
# [16] = molecular target: Gal(b1-4)GlcNAc(b1-2)Man(a1-6)[GlcNAc(b1-2)Man(a1-3)]Man(b1-4)GlcNAc(b1-4)GlcNAc
# Summary of the method: as §1
# [17] = molecular target: Gal(b1-4)GlcNAc(b1-2)Man(a1-6)[Man(a1-3)]Man(b1-4)GlcNAc(b1-4)GlcNAc
# Summary of the method: as §1
# [18] = molecular target: Gal(b1-4)GlcNAc(b1-2)[Gal(b1-4)GlcNAc(b1-4)]Man(a1-3)[Gal(b1-4)GlcNAc(b1-2)Man(a1-6)]Man(b1-4)GlcNAc(b1-4)GlcNAc
# Summary of the method: as §1
# [19] = molecular target: Gal(b1-4)GlcNAc(b1-2)[Gal(b1-4)GlcNAc(b1-4)]Man(a1-3)[Gal(b1-4)GlcNAc(b1-2)[Gal(b1-4)GlcNAc(b1-6)]Man(a1-6)]Man(b1-4)GlcNAc(b1-4)GlcNAc
# Summary of the method: as §1
# [20] = molecular target: Gal(b1-4)GlcNAc(b1-2)[Gal(b1-4)GlcNAc(b1-4)]Man(a1-3)[GlcNAc(b1-4)][Gal(b1-4)GlcNAc(b1-2)Man(a1-6)]Man(b1-4)GlcNAc(b1-4)GlcNAc
# Summary of the method: as §1
# [21] = molecular target: Gal(b1-4)GlcNAc(b1-2)[Gal(b1-4)GlcNAc(b1-4)]Man(a1-3)[GlcNAc(b1-4)][Gal(b1-4)GlcNAc(b1-2)[Gal(b1-4)GlcNAc(b1-6)]Man(a1-6)]Man(b1-4)GlcNAc(b1-4)GlcNAc
# Summary of the method: as §1
# [22] = molecular target: Gal(b1-4)GlcNAc(b1-2)[Gal(b1-4)GlcNAc(b1-6)]Man(a1-6)[Gal(b1-4)GlcNAc(b1-2)Man(a1-3)]Man(b1-4)GlcNAc(b1-4)GlcNAc
# Summary of the method: as §1
binder,measurement,setting,value
B1,glycan array binding signal (z-score),[1],1.07
same,glycan array binding signal (z-score),[2],-0.27
same,glycan array binding signal (z-score),[3],-1.15
same,glycan array binding signal (z-score),[4],-0.861
same,glycan array binding signal (z-score),[5],-0.654
same,glycan array binding signal (z-score),[6],0.594
same,glycan array binding signal (z-score),[7],0.005
same,glycan array binding signal (z-score),[8],-0.738
same,glycan array binding signal (z-score),[9],1.68
same,glycan array binding signal (z-score),[10],-0.8
same,glycan array binding signal (z-score),[11],-1.04
same,glycan array binding signal (z-score),[12],-1.01
same,glycan array binding signal (z-score),[13],0.955
same,glycan array binding signal (z-score),[14],0.65
same,glycan array binding signal (z-score),[15],-0.202
same,glycan array binding signal (z-score),[16],-0.726
same,glycan array binding signal (z-score),[17],0.026
same,glycan array binding signal (z-score),[18],-1.17
same,glycan array binding signal (z-score),[19],-1.07
same,glycan array binding signal (z-score),[20],-1.24
same,glycan array binding signal (z-score),[21],-0.469
same,glycan array binding signal (z-score),[22],1.35

# Given as tab-separated lines: entries from further up
binder	measurement	setting	value
B1	glycan array binding signal (z-score)	[12]	-1.01
same	glycan array binding signal (z-score)	[20]	-1.24
